# Reference: the supplement of paper PMC12819154, “High-throughput peptide-centric local stability assay extends protein–ligand identification to membrane proteins, tissues and bacteria” (Nature Structural & Molecular Biology, 2025)
# Amino acid sequences for entries named in this document (tags omitted). A change or cut given only in a name is not applied to a line headed by its entry.
# UniProt P07339: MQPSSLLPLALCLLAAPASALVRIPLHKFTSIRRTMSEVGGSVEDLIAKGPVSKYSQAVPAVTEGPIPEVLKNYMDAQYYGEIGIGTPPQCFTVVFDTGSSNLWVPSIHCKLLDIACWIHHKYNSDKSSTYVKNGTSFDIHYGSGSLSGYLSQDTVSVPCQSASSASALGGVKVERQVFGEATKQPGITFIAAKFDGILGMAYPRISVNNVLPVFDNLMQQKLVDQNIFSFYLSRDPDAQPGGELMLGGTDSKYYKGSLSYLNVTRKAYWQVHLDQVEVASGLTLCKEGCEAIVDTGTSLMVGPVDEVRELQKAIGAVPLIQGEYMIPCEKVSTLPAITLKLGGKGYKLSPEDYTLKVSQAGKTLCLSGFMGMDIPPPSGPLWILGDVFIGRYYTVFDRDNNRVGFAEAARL
# UniProt P0DME0, whole entry: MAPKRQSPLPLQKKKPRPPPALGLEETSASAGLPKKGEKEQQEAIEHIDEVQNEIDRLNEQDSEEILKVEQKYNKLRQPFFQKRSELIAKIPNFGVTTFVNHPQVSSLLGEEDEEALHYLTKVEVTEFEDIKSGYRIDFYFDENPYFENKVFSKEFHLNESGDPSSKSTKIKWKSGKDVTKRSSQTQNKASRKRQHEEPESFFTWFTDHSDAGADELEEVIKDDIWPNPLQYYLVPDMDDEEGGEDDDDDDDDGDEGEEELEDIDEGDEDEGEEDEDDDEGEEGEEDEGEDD
# UniProt P13804: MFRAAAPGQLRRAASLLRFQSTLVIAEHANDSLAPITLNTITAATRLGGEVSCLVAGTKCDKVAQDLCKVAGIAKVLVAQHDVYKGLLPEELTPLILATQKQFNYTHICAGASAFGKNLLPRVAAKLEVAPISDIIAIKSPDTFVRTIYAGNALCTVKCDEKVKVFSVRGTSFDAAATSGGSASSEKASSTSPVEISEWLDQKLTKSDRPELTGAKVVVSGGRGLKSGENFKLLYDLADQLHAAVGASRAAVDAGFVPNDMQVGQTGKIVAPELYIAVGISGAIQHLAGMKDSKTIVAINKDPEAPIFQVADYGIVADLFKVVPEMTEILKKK
# UniProt P09668: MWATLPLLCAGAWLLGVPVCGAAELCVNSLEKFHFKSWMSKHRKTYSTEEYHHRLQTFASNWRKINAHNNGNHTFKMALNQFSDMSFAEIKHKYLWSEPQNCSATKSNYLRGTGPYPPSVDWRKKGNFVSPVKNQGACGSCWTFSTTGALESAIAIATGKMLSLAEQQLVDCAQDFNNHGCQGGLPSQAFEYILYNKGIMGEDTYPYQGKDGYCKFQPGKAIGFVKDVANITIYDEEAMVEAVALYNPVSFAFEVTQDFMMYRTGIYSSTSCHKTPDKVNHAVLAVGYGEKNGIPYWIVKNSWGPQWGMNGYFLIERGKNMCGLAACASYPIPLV
# UniProt P13224: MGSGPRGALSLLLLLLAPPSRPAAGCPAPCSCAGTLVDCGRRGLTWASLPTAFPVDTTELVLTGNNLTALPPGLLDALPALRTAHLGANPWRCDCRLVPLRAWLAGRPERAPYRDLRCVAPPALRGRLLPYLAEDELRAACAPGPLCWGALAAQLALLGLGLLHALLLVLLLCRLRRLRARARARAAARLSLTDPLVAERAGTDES
# UniProt P10412, whole entry: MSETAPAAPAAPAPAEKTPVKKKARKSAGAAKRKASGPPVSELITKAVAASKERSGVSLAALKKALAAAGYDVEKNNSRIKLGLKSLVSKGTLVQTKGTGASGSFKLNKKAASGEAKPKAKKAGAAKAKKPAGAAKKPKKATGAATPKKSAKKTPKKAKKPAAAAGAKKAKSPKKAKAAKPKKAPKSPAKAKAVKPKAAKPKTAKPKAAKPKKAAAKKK
# UniProt P10599: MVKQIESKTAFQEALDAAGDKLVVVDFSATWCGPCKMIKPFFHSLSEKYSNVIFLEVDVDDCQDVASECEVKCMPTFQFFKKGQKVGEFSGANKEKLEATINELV
# UniProt P0C221: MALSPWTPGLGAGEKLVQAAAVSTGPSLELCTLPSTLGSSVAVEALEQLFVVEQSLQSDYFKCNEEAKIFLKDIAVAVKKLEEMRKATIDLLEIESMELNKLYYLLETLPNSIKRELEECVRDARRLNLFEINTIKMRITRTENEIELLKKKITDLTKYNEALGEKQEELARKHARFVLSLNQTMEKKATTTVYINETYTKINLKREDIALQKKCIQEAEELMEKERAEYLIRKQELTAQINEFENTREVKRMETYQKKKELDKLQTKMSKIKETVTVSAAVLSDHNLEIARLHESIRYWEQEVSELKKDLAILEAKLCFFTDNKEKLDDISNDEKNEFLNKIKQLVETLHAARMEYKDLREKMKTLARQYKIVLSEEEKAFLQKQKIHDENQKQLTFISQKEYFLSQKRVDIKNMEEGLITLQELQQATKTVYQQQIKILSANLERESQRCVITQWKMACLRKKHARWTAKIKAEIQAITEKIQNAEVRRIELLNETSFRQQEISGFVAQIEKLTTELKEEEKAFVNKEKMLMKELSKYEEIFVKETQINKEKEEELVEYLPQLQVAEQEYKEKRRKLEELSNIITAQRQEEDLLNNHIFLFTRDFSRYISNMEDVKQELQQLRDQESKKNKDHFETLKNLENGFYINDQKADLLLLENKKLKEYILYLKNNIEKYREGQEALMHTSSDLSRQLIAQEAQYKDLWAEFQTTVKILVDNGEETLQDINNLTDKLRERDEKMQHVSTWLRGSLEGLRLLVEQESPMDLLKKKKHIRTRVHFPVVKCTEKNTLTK
# UniProt P10075: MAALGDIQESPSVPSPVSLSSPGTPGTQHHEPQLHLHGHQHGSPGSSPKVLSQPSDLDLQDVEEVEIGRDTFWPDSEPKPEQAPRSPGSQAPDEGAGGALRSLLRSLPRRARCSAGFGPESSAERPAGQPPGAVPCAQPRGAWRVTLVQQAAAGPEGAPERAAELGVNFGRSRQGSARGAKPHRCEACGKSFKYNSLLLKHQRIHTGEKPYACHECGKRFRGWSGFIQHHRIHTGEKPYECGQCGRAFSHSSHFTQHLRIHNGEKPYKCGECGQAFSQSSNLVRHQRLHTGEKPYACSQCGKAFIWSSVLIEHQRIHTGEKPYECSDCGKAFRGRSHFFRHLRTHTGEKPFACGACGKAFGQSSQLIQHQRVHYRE
# UniProt P07602: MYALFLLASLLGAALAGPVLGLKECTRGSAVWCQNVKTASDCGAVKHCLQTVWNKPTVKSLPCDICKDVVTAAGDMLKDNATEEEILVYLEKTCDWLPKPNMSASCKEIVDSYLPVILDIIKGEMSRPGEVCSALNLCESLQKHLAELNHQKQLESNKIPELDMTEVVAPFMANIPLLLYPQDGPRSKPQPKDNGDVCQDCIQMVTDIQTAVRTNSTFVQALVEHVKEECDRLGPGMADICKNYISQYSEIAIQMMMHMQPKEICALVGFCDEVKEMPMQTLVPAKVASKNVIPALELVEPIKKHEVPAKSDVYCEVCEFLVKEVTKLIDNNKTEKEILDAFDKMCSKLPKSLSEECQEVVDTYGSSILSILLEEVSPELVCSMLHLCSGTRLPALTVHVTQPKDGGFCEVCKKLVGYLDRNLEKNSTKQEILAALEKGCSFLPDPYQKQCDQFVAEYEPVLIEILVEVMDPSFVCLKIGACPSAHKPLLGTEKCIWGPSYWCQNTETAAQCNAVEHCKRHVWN
# UniProt P09497: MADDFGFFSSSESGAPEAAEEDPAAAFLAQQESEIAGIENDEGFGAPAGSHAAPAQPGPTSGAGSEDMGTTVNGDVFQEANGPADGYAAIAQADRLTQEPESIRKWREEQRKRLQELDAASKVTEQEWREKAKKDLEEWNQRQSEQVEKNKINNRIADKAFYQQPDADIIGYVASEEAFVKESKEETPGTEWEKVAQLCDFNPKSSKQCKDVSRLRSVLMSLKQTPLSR
# UniProt P11413, whole entry: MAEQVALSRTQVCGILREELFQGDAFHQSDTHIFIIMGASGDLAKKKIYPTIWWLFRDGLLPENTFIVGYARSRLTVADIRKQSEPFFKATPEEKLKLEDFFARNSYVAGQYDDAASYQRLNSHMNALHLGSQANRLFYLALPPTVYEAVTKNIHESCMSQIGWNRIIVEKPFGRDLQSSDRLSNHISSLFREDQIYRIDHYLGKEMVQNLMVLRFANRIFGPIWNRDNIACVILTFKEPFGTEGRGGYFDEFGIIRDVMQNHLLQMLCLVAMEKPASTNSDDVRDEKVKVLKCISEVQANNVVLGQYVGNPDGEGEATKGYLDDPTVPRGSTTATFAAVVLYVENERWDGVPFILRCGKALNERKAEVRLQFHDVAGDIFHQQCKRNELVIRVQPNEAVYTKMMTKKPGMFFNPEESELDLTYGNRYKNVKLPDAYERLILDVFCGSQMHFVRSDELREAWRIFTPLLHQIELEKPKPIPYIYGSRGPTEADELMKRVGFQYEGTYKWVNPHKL
# UniProt P09110: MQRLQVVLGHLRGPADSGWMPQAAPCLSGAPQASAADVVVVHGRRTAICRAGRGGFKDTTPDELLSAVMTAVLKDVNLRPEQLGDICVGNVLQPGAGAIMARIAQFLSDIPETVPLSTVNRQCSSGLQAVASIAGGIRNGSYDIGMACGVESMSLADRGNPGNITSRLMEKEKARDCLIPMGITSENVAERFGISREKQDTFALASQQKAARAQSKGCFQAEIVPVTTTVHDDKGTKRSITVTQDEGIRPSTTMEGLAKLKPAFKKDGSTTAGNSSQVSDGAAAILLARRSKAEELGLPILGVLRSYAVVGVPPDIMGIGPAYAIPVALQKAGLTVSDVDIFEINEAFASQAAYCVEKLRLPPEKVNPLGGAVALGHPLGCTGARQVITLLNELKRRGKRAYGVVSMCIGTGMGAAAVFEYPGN
# UniProt P0C860: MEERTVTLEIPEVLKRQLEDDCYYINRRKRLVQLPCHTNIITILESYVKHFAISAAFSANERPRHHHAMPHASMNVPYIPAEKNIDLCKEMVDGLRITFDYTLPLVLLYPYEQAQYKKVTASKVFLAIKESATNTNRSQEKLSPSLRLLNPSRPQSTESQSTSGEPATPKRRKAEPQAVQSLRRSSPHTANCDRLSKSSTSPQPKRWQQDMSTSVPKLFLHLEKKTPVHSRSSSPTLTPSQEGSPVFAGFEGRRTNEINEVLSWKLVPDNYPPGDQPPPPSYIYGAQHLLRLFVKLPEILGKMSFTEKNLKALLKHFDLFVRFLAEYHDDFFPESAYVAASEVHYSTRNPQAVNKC
# UniProt P08651, whole entry: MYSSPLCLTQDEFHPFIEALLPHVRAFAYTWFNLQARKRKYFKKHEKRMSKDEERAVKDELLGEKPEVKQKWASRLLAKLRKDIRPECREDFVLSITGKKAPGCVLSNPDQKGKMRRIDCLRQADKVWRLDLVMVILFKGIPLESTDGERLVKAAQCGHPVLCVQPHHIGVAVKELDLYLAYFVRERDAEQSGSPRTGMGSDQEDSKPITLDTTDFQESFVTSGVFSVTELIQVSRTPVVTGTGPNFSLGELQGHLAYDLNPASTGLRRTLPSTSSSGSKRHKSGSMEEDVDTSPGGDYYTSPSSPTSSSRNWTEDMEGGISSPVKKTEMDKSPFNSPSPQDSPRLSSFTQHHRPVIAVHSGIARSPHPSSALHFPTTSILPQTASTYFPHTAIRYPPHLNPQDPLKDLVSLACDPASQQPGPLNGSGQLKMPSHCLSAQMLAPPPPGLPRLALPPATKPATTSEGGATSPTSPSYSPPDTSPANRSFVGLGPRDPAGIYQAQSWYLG
# UniProt P02511: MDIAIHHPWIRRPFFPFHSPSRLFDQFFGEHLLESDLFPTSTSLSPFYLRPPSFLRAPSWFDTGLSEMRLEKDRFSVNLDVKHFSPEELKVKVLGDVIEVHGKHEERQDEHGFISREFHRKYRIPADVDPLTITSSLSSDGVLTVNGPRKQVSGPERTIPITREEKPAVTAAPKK
# UniProt P11310: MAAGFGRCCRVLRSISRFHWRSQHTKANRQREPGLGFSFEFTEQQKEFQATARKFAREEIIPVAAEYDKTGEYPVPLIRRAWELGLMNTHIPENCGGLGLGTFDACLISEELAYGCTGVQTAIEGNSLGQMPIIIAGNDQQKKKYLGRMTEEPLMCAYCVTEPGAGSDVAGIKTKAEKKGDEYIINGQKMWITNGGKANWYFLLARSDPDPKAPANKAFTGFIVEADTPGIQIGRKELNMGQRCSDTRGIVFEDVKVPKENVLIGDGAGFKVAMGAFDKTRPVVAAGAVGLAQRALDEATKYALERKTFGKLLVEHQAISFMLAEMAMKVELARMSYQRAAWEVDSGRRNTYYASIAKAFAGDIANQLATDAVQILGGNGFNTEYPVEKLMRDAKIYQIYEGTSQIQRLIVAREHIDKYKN
# UniProt P0CW19: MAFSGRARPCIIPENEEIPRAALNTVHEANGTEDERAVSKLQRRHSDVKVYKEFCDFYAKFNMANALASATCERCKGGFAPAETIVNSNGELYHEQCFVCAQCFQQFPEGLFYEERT
# This is one part of the list. Small differences around the control level are noise.
# Compound: Cc1nc(Nc2ncc(C(=O)Nc3c(C)cccc3Cl)s2)cc(N2CCN(CCO)CC2)n1 [dasatinib]
# Assay: log2 fold change of tryptic peptide abundance, ligand vs vehicle (limited proteolysis) (log2 ratio); higher = more trypsin-susceptible (destabilized)
# Conditions: ligand concentration: 5 uM; sample: K562 cleared lysate
row,Target,log2 fold change
1,"CTSD (peptide sequence: QPGITFIAAK, peptide start residue: 185) (UniProt P07339)",0.222
2,"EEF2 (peptide sequence: ARPFPDGLAEDIDKGEVSAR, peptide start residue: 606) (UniProt P13639)",-0.199
3,"UniProt P0DME0 (peptide sequence: VEVTEFEDIK, peptide start residue: 123)",0.193
4,"ETFA (peptide sequence: VAAKLEVAPISDIIAIK, peptide start residue: 123) (UniProt P13804)",1.05
5,"CTSH (peptide sequence: TGIYSSTSCHK, peptide start residue: 264) (UniProt P09668)",-0.839
6,"PARP1 (peptide sequence: KMVDPEKPQLGMIDR, peptide start residue: 142) (UniProt P09874)",-0.742
7,"GP1BB (peptide sequence: LSLTDPLVAER, peptide start residue: 190) (UniProt P13224)",0.0436
8,"HIST1H1E (peptide sequence: KAASGEAKPK, peptide start residue: 110) (UniProt P10412)",-0.0641
9,"TXN (peptide sequence: VGEFSGANKEK, peptide start residue: 86) (UniProt P10599)",-0.0893
10,"MAPT (peptide sequence: IGSLDNITHVPGGGNK, peptide start residue: 671) (UniProt P10636)",-0.144
11,"CCDC175 (peptide sequence: KHARWTAK, peptide start residue: 465) (UniProt P0C221)",-0.242
12,"UniProt P10075 (peptide sequence: AAELGVNFGR, peptide start residue: 162)",0.0897
13,"PSAP (peptide sequence: GSAVWCQNVK, peptide start residue: 28) (UniProt P07602)",0.0736
14,"S100A6 (peptide sequence: EGDKHTLSKK, peptide start residue: 23) (UniProt P06703)",0.738
15,"CLTB (peptide sequence: VTEQEWR, peptide start residue: 123) (UniProt P09497)",0.0986
16,"G6PD (peptide sequence: TQVCGILR, peptide start residue: 10) (UniProt P11413)",0.0546
17,"ACAA1 (peptide sequence: GNPGNITSR, peptide start residue: 159) (UniProt P09110)",0.137
18,"ATP1A1 (peptide sequence: DKYEPAAVSEQGDKK, peptide start residue: 8) (UniProt P05023)",0.0844
19,"UniProt P0C860 (peptide sequence: LFLHLEK, peptide start residue: 384)",0.0143
20,"NFIC (peptide sequence: AVKDELLGEKPEVK, peptide start residue: 56) (UniProt P08651)",0.315
21,"CRYAB (peptide sequence: MDIAIHHPWIR, peptide start residue: 1) (UniProt P02511)",-0.088
22,"ACADM (peptide sequence: TRPVVAAGAVGLAQR, peptide start residue: 280) (UniProt P11310)",0.136
23,"UniProt P0CW19 (peptide sequence: AALNTVHEANGTEDER, peptide start residue: 21)",-0.275
24,"RAF1 (peptide sequence: DQIIFMVGR, peptide start residue: 516) (UniProt P04049)",0.33
25,"APEH (peptide sequence: VVFDSAQR, peptide start residue: 376) (UniProt P13798)",0.277
26,"UniProt P0DJD0 (peptide sequence: SADQLNGLLR, peptide start residue: 1657)",-0.283

# 2 entries picked at random from those above:
row,Target,log2 fold change
10,"MAPT (peptide sequence: IGSLDNITHVPGGGNK, peptide start residue: 671) (UniProt P10636)",-0.144
25,"APEH (peptide sequence: VVFDSAQR, peptide start residue: 376) (UniProt P13798)",0.277
